Assay results reported in PubChem BioAssay AID1259415 (National Center for Advancing Translational Sciences (NCATS), 2018).
Out of some 410,000 compounds screened, about 18,000 (4.4%) were called active. The shares of active, inactive and inconclusive entries below differ from those in the screen. Rule as the data show it: active = activity change below about -60%; inconclusive = no clear call, values can overlap the other calls; inactive = above about -39%.

test: qHTS Assay for inhibitors of the human cytomegalovirus (HCMV); conditions: HFF cells, HCMV-luciferase reporter, 72 h; at 57.5 µM; hits give low values
Method in brief: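 Two compound doses tested in HFFs infected with HCMV-luciferase, MOI 1 PFU/cell, 72 h at 37C. Lysate luminescence read with OneGlo; data normalized against buffer-only and 10uM Salinomycin inhibitor controls.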
% is scaled to controls: 0 for no effect and ±100 for the full control effect.

**Q.** Which activity change, negative = inhibition does the source give for CCOCCc1nn2c(=O)cc(CSCC(=O)Nc3ccccc3)nc2s1 here?
**A.** inconclusive: -49.8%

**Q.** Which activity change, negative = inhibition does the source give for CSCCC(c1nnnn1-c1c(C)cccc1C)N1CCC(n2c(=O)[nH]c3ccccc32)CC1 (configuration not stated) here?
**A.** inconclusive: -48.4%

**Q.** Which activity change, negative = inhibition does the source give for COc1ccc(NC(=O)c2cccc(S(=O)(=O)N3CCc4ccccc43)c2)c(OC)c1 here?
**A.** inconclusive: -43.9%

**Q.** With CCc1ccc(CN(Cc2cccnc2)C(=O)/C=C/c2ccc(OC)cc2)cc1 as the compound, how does the activity change, negative = inhibition read?
**A.** inactive: 98.2%

**Q.** Which activity change, negative = inhibition does the source give for CNC(=O)Nc1cc(C(F)(F)F)cc(C(F)(F)F)c1 here?
**A.** inactive: 6.52%

**Q.** Which activity change, negative = inhibition does the source give for COc1cccc(-c2cccc3c4c([nH]c23)[C@@H]2C[C@H]3[C@@H](C(=O)N2CC4)[C@H](C)ON3C)c1 here?
**A.** inactive: -27.9%

**Q.** Which activity change, negative = inhibition does the source give for CCOC(=O)Cn1c(=N)n(Cc2ccc(C(C)(C)C)cc2)c2ccccc21 here?
**A.** inconclusive: -41.7%

**Q.** Which activity change, negative = inhibition does the source give for Cc1ccc(NC(=S)N(CCCN2CCCC2)Cc2cccn2Cc2ccc(Cl)cc2)cc1C here?
**A.** inactive: -24.8%

**Q.** For COc1ccc([N+](=O)[O-])cc1NC(=O)C1CCCCC1C(=O)O (configuration not stated), which activity change, negative = inhibition is on record?
**A.** inconclusive: -40.2%

**Q.** With Cc1nc2cc(-c3ccccc3)nn2c(C)c1CCC(=O)N1CCN(c2ccc(F)cc2)CC1 as the compound, how does the activity change, negative = inhibition read?
**A.** inconclusive: -43.7%

**Q.** For CCCCn1c(=O)nc2n(-c3ccc(OC)cc3)c3ccccc3cc-2c1=O, which activity change, negative = inhibition is on record?
**A.** inconclusive: -44.6%

**Q.** With O=C(C1=C[C@H](c2csc3ccccc23)C[C@H](OCc2ccc(CO)cc2)O1)N1CCN(Cc2ccccc2)CC1 as the compound, how does the activity change, negative = inhibition read?
**A.** inconclusive: -41.8%

**Q.** For CCOC(=O)C1=C[C@@H](c2ccccc2)N(S(=O)(=O)c2ccc(C)cc2)[C@H]1c1ccc(F)cc1, which activity change, negative = inhibition is on record?
**A.** inconclusive: -46.7%

**Q.** For CCCOC(=O)c1cccc(Nc2nc(CCC)cc(=O)[nH]2)c1, which activity change, negative = inhibition is on record?
**A.** inconclusive: -46.2%

**Q.** With CCc1ccccc1NC(=S)N1CCN(c2cccc(OC)c2)CC1 as the compound, how does the activity change, negative = inhibition read?
**A.** inactive: -17%

**Q.** With CC(NC(=O)NC(=O)c1cccc(Cl)c1)c1ccccc1 (configuration not stated) as the compound, how does the activity change, negative = inhibition read?
**A.** inconclusive: -51.1%

**Q.** Which activity change, negative = inhibition does the source give for Cc1ccc(C)c(C(=O)CN2C3=NCCCN3c3ccccc32)c1 here?
**A.** inconclusive: -52.5%

**Q.** For CCOc1ccc(-c2c(C#N)c(N)nc3sc(C(=O)c4ccccc4)c(N)c23)cc1, which activity change, negative = inhibition is on record?
**A.** inconclusive: -41.7%

**Q.** For COc1cccc(/C=C2\CCCCC2=O)c1, which activity change, negative = inhibition is on record?
**A.** inconclusive: -53.6%

**Q.** Which activity change, negative = inhibition does the source give for O=C(O)C1CC(c2ccccc2)=Nc2ccccc2S1 (configuration not stated) here?
**A.** inactive: 24.9%

**Q.** For CC(C)(C)NC(=O)C1C(c2ccc(C(F)(F)F)cc2)=Nc2ccccc2N1C(=O)c1cccc(C(F)(F)F)c1 (configuration not stated), which activity change, negative = inhibition is on record?
**A.** inconclusive: -46.9%

**Q.** Which activity change, negative = inhibition does the source give for O=C(NNC(=O)c1cccc(S(=O)(=O)N2CCc3ccccc32)c1)c1ccccc1 here?
**A.** inconclusive: -51.1%

**Q.** Which activity change, negative = inhibition does the source give for NS(=O)(=O)c1ccc(NC(=O)COC(=O)C2(c3ccccc3F)CCCC2)cc1 here?
**A.** inconclusive: -58.7%

**Q.** With COc1ccc(C(C)(C)C)cc1S(=O)(=O)N1CCN(C)CC1 as the compound, how does the activity change, negative = inhibition read?
**A.** inconclusive: -40.8%

**Q.** For CCn1c(CNC(=O)c2ccccc2OC)nnc1SCC(=O)c1ccc(F)cc1, which activity change, negative = inhibition is on record?
**A.** inconclusive: -46.5%

**Q.** For COc1cccc2sc(NNC(=O)C3=COCCO3)nc12, which activity change, negative = inhibition is on record?
**A.** inconclusive: -47%

**Q.** Which activity change, negative = inhibition does the source give for Fc1cnc(N2CCN(c3ccccc3)CC2)nc1N1CCN(c2ccccc2)CC1 here?
**A.** inconclusive: -45.5%

**Q.** Which activity change, negative = inhibition does the source give for C[C@H]1Oc2ccccc2C(=O)C1C(=O)c1ccccc1 (some centres not stated) here?
**A.** inactive: 11.8%

**Q.** With CCOc1ccc(S(=O)(=O)N2CCOCC2)cc1NC(=O)c1ccccc1F as the compound, how does the activity change, negative = inhibition read?
**A.** inconclusive: -47.5%

**Q.** Which activity change, negative = inhibition does the source give for O=[N+]([O-])c1ccc2c(c1)Cc1cc(F)ccc1-2 here?
**A.** active: -94.3%

**Q.** For O=C(CN1CCSC1=NCc1ccccc1)c1ccc(Cl)c(Cl)c1, which activity change, negative = inhibition is on record?
**A.** inconclusive: -56.9%

**Q.** Which activity change, negative = inhibition does the source give for O=C(CCc1ccc(S(=O)(=O)NCCc2ccccc2)cc1)Nc1ccc2c(c1)OCO2 here?
**A.** inactive: -4.09%

**Q.** Which activity change, negative = inhibition does the source give for CCCN1CCN(CCCNC(=O)c2ccc3nc(N4CCC(C)CC4)sc3c2)CC1 here?
**A.** inactive: -25%

**Q.** For CC1CCC(C(C)C)C(OC(=O)COC(=O)c2cccn2C)C1 (configuration not stated), which activity change, negative = inhibition is on record?
**A.** inconclusive: -44.1%

**Q.** With O=C(O)c1ccccc1CSc1ncccc1C(=O)O as the compound, how does the activity change, negative = inhibition read?
**A.** inconclusive: -40.7%

**Q.** Which activity change, negative = inhibition does the source give for C/C(=N\Nc1ccc(S(N)(=O)=O)cc1[N+](=O)[O-])c1cccs1 here?
**A.** inconclusive: -57.1%

**Q.** With O=C(NCCCN1CCCC1=O)c1ccccc1OCc1ccc(Cl)cc1Cl as the compound, how does the activity change, negative = inhibition read?
**A.** inactive: -27.1%

**Q.** For Nc1ccc(Cl)c(S(=O)(=O)Nc2cccc(Cl)c2)c1, which activity change, negative = inhibition is on record?
**A.** inconclusive: -40.9%

**Q.** For CSCCC1NC(=O)C(C(C)=NNC(N)=O)=C1O (configuration not stated), which activity change, negative = inhibition is on record?
**A.** inactive: 16.8%

**Q.** Which activity change, negative = inhibition does the source give for CCOc1ccc2[nH]c3c(NCCOC)ncnc3c2c1 here?
**A.** inactive: 27.1%

**Q.** For COc1ccc(NC(=O)CCc2c(C)nc3c(c2C)c(=O)n(C)c(=O)n3C)c(OC)c1, which activity change, negative = inhibition is on record?
**A.** active: -76.4%

**Q.** Which activity change, negative = inhibition does the source give for Cc1cc(=O)oc2c3c(cc(OCC(=O)Nc4ccc(CCO)cc4)c12)OC(C)(C)CC3 here?
**A.** inactive: 3.87%
